# Experimental data reported in PubChem BioAssay AID1961 (Sanford-Burnham Center for Chemical Genomics, 2009).
# The list shows a part of the results.
# Assay: GPR55 agonists via beta-arrestin recruitment, primary screen, imaging, U2OS cells, beta-arrestin-GFP redistribution (AID 1961);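 further: U2OS osteosarcoma cells stably expressing GPR55 and beta-arrestin-GFP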
# Conditions: measured here: cytotoxicity, cells analyzed, at 10 µM
row,Compound,cell count [cells]
1,CP(=O)(Nc1ccc(Cl)cc1Cl)Oc1ccccc1 (stereo unspecified),227
2,CP(=O)(OCCOc1ccccc1)OCCOc1ccccc1,221
3,Nc1cccc2ccc([As](=O)(O)O)cc12,325
4,CCN(N=Nc1nonc1N)c1nonc1N,302
5,Cc1ccc(N/C(=N/P(=O)(N2CCOCC2)N2CCOCC2)N2CCOCC2)cc1,316
6,COc1ccccc1OP(C)(=O)Nc1ccc(Br)cc1 (stereo unspecified),337
7,NC(=O)c1cc([N+](=O)[O-])cc([N+](=O)[O-])c1N,229
8,CN1CCCC(OC(=O)C(c2ccccc2)c2ccccc2)C1 (stereo unspecified),291
9,Clc1ccc(Cl)c(NC2=NCC(CBr)S2)c1 (stereo unspecified),227
10,CN(C)CCOC(=O)C(O)(c1ccccc1)C1CCCC1 (stereo unspecified),369
11,Cc1ccc(OP(=O)(Nc2nccs2)Oc2ccc(C)cc2)cc1,339
12,COc1ccccc1OP(=O)(Nc1ccc(C)cn1)Oc1ccccc1OC,372
13,COc1ccc(OP(C)(=O)Nc2ccccn2)cc1 (stereo unspecified),488
14,O=C(NC(Sc1ccncn1)C(Cl)(Cl)Cl)c1ccccc1 (stereo unspecified),324
15,Cc1c2non([O-])c-2c(C)[n+](=O)[n+]1[O-],320
16,Oc1ccccc1CNc1ccccn1,349
17,Cc1c(NP(C)(=O)Oc2ccc(C(C)C)cc2)c(=O)n(-c2ccccc2)n1C (stereo unspecified),396
18,Nc1cc(N)c2nonc2c1[N+](=O)[O-],332
19,CC(C)CC(=O)NC(Sc1ccc(Cl)cc1)C(Cl)(Cl)Cl (stereo unspecified),390
20,O=[N+]([O-])c1cc([N+](=O)[O-])c(Nc2ccccn2)c([N+](=O)[O-])c1,368
21,CCc1ccc(OP(C)(=O)O)cc1,339
22,COc1ccccc1OP(C)(=O)Nc1ccc(C)cc1C (stereo unspecified),364
23,CP(=O)(Nc1ccccn1)Oc1ccccc1 (stereo unspecified),368
24,COc1ccc(OP(C)(=O)Nc2ccc(Br)cc2)cc1 (stereo unspecified),351
25,COc1ccc(C2=NCC(CBr)S2)cc1 (stereo unspecified),261
26,CCN(CC)CC(O)COC(=O)C(O)(c1ccccc1)C1CCCCC1 (stereo unspecified),379

row,Compound,cell count [cells]
1,CCc1ccc(OP(C)(=O)Nc2cccnc2)cc1 (stereo unspecified),244
2,CCc1nc2c(n1)c1c(non1O)c1c2no[n+]1[O-],368
3,O=[N+]([O-])c1cc([N+](=O)[O-])c(CCNc2ccccc2)c([N+](=O)[O-])c1,301
4,CP(=O)(Oc1ccccc1)N1CCOC1=O (stereo unspecified),256
5,Cc1ccc(NP(=O)(Oc2ccccc2)Oc2ccccc2)nc1,285
6,O=C(OCCCN1CCCC1)C(O)(c1ccccc1)C1CCCCC1 (stereo unspecified),316
7,O=[N+]([O-])c1cccc2n[nH]nc12,406
8,CC(=O)N1C2C3N(C(C)=O)C1C1N(C(C)=O)C(C(N1C(C)=O)N3C(C)=O)N2C(C)=O,368
9,COc1ccccc1OP(C)(=O)Nc1c(C)n(C)n(-c2ccccc2)c1=O (stereo unspecified),324
10,CP(=O)(Nc1ccc(Cl)cc1)Oc1ccc(F)cc1 (stereo unspecified),375
11,CCN(/C(=N/P(=O)(N1CCOCC1)N1CCOCC1)N1CCOCC1)c1ccc(OC)cc1,256
12,C[N+]1=C2C=CC=CC=C2SC12C([N+](=O)[O-])=CC([N+](=O)[O-])=C[C-]2[N+](=O)[O-] (stereo unspecified),338
13,COc1ccccc1OP(C)(=O)Nc1ccccc1Br (stereo unspecified),266
14,CC(C)(C)c1ccc(OP(C)(=O)O)cc1,371
15,Nc1ccc([As](=O)(O)c2ccc(N)cc2)cc1,348
16,CC1CCN(C(=O)Oc2c(Cl)cc(Cl)c3cccnc23)CC1,371
17,CN(C)C(=O)OCCc1n(C)cc[n+]1C,363
18,CN(C)C(=O)c1c([N+](=O)[O-])cc([N+](=O)[O-])cc1[N+](=O)[O-],272
19,CC(C)=N/N=C(\N)N[N+](=O)[O-],411
20,CP(=O)(OC12CC3CC(CC(C3)C1)C2)OC12CC3CC(CC(C3)C1)C2,381
21,O=C(Nc1cc([As](=O)(O)O)ccc1O)c1ccccc1,333
22,CCOC(=O)c1ccc(NP(C)(=O)Oc2ccc(Cl)cc2)cc1 (stereo unspecified),334
23,O=[N+]([O-])c1ncn(CCn2ncnc2[N+](=O)[O-])n1,214
24,CC(C)(C)C(=O)NC(Sc1ccncn1)C(Cl)(Cl)Cl (stereo unspecified),339
25,O=C(O)CNc1ccc([As](=O)(O)O)cc1,385
26,O=[N+]([O-])c1cccc(NC2=NCC(CBr)S2)c1 (stereo unspecified),325

row,Compound,cell count [cells]
1,O=P(Nc1ccccn1)(c1ccc(Br)cc1)c1ccc(Br)cc1,452
2,CN(C)C1(CNC(=O)c2ccc(Cl)c(S(N)(=O)=O)c2)CCCCC1,364
3,COc1ccc(OP(C)(=O)Nc2cccc(Br)c2)cc1 (stereo unspecified),347
4,COc1ccc(NP(C)(=O)Oc2ccccc2OC)cc1 (stereo unspecified),235
5,C[C@H]1OP(=O)(Oc2ccccc2)[C@H](O)[C@H](O)[C@H]1N=[N+]=[N-] (stereo partly specified),381
6,CN(C)CCOC(=O)C(O)(c1ccccc1)C1CCCCC1 (stereo unspecified),320
7,O=P(Nc1nc2ccccc2s1)(c1ccccc1)c1ccccc1,346
8,O=[N+]([O-])c1cc([N+](=O)[O-])c(NCC2CCS(=O)(=O)C2)c([N+](=O)[O-])c1 (stereo unspecified),246
9,Cc1cc(-c2cccc3ccccc23)c(C)cn1.O=[N+]([O-])c1cc([N+](=O)[O-])c(O)c([N+](=O)[O-])c1,396
10,O=[As](O)(c1ccccc1)c1ccc(O)cc1,382
11,O=[N+]([O-])c1ccc(O)c(/C=N/Nc2ccc([N+](=O)[O-])cc2[N+](=O)[O-])c1,402
12,O=[N+]([O-])c1ncn(CCn2cnc([N+](=O)[O-])n2)n1,376
13,CC(=O)NC(SC(=S)N(C)C)C(Cl)(Cl)Cl (stereo unspecified),353
14,O=[N+]([O-])c1ccc(OP2(=O)COCCO2)cc1 (stereo unspecified),400
15,O=C(OC1CN2CCC1CC2)c1cccc(Cl)c1 (stereo unspecified),334
16,C(Cc1nn[nH]n1)Cc1nn[nH]n1,341
17,Nc1ccc([As](=O)(O)c2ccc([N+](=O)[O-])cc2)cc1,364
18,CC(C)C(=O)NC(Sc1ccccc1)C(Cl)(Cl)Cl (stereo unspecified),299
19,O=P(Nc1nccs1)(c1ccccc1)c1ccccc1,364
20,CP(=O)(Nc1ccc(SC(F)(F)F)cc1)Oc1ccc(F)cc1 (stereo unspecified),373
21,c1nnnn1CCn1cnnn1,331
22,CCOP(C)(=S)SCC(=O)NC(C)(CC)C(=O)O (stereo unspecified),272
23,CP(=O)(Nc1ccc2c(c1)OCCO2)Oc1ccccc1 (stereo unspecified),270
24,Cc1ccccc1NP(C)(=O)Nc1ccccc1C,387
